Values joined by “and” are separate entries in the source; they are usually repeats but may differ in a detail not shown here. Identical values can stand only once. Inconclusive results, whose numbers are uncertain, are shown with a selection of clear calls. For some of these results: Where the call is inconclusive, the potency comes from a doubtful curve fit. Some structures have more than one record in an assay (separate samples or runs), and their calls can disagree. Active and inactive are the calls of the source. Unless noted, calls follow the shape of the full dose curve.
Experiments:
[1] = molecular target: 5-hydroxytryptamine receptor 2A (Homo sapiens) (UniProt P28223); assay: 5-hydroxytryptamine receptor 2A (HTR2A) small molecule antagonists, cell-based qHTS assay (AID 1963586); also: nearly all actives have a fitted effect of over 45% in size; also: potency is read from the fitted curve at half-maximal effect
How it was run: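 CHO cells stably expressing human HTR2A were plated for 18 h at 37 C, then loaded with calcium dye for 1 h. Compounds were preincubated 5 min at room temperature before DOI (4 nM solution) was added. Kinetic fluorescence was read for 3 min.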

Chains of the proteins cited; added tags and fusions are not shown.
UniProt P28223, whole entry, looked up: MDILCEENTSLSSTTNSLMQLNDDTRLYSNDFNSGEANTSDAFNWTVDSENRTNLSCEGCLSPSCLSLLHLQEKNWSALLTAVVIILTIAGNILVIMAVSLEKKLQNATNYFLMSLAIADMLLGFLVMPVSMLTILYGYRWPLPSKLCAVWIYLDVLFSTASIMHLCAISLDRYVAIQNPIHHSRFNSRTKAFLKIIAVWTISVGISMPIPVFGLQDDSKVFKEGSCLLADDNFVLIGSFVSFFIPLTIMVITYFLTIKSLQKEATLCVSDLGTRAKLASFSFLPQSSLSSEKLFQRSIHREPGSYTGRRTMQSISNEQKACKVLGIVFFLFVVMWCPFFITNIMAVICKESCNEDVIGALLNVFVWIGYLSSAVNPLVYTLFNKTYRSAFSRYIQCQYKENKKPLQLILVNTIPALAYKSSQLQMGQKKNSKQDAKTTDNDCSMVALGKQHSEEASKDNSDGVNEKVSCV
UniProt P14416, whole entry, looked up: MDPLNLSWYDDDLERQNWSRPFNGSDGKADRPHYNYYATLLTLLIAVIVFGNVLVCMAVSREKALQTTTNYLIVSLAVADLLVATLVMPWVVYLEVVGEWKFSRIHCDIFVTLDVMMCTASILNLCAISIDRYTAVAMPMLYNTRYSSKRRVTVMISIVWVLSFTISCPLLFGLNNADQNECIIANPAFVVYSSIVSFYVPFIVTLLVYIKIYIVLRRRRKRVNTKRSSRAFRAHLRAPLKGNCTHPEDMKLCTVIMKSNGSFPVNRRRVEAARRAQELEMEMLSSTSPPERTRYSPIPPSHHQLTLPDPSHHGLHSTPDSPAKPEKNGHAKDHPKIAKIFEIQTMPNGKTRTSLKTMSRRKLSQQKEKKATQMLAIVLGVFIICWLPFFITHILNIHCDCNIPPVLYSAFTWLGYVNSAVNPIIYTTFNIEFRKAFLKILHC

[2] = cAMP Responsive Elements (CRE) small molecule agonists, cell-based qHTS assay (AID 1963590); settings: CRE-bla HEK293T, beta-lactamase FRET ratio, 3 h; activation: at 92.4 µM (top of the series) unless noted; also: potency is read from the fitted curve at half-maximal effect
How it was run: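 HEK 293T cells stably bearing CRE-bla were plated at 2,000 cells per well and rested 18 h. Compounds, positive controls or DMSO were added for 3 h at 37 C. LiveBLAzer B/G substrate was then loaded for 2 h at room temperature.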

[3] = molecular target: Beta-2 adrenergic receptor (Homo sapiens) (UniProt P07550); assay: Adrenergic beta2 receptor (ADRB2) small molecule agonists, cell-based qHTS assay (AID 1963593); settings: CHO-ADRB2 cells, cAMP HTRF, 30 min; also: potency is read from the fitted curve at half-maximal effect;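 as to activation: CHO cells stably overexpressing human ADRB2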
How it was run: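 CHO cells stably over-expressing ADRB2 were plated overnight at 37C, then dosed with compounds plus a stimulation mix containing 100uM IBMX and 25uM Ro-20-1724 for 0.5hr at room temperature. cAMP was measured by HTRF competition, 1hr.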

[4] = molecular target: D(2) dopamine receptor (Homo sapiens) (UniProt P14416); assay: Dopamine D2 receptor (DRD2) small molecule antagonists, cell-based qHTS assay (AID 1963595; active = well fitted inhibition curve with a large enough effect in the signal ratio in the repeat runs, with a control signal flat; inconclusive = weak or mixed curves, or effect the other way; the % refers to the signal ratio; also: potency is read from the fitted curve at half-maximal effect); settings: HEK293-DRD2 cAMP HTRF antagonist mode; activity change, negative = inhibition: at 92.4 µM (top of the series) unless noted
How it was run: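 DRD2-HEK293; 0.1 mM Ro20-1724; cpd 10 min RT; NKH477 200 nM + quinpirole 12 nM, 30 min RT; HTRF cAMP (cAMP-d2/anti-cAMP cryptate), 665/620 nm ratio after 1 h.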

[5] = molecular target: Beta-2 adrenergic receptor (Homo sapiens) (UniProt P07550); assay: Adrenergic beta2 receptor (ADRB2) small molecule antagonists, cell-based qHTS assay (AID 1963592); settings: CHO-ADRB2 cells, isoproterenol-stimulated cAMP HTRF ratio, 0.5 h; activity change, negative = inhibition: at 92.4 µM (top of the series) unless noted; also: nearly all actives have a fitted effect of over 50% in size; also: potency is read from the fitted curve at half-maximal effect
How it was run: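 Assay format: CHO-ADRB2 cells, 18-20hr seeding at 37C/5% CO2, then compound plus 1nM isoproterenol agonist mix for 0.5hr RT. Homogeneous time-resolved fluorescence cAMP detection after 1hr, expressed as 665/615 nm ratio.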

[6] = cAMP Responsive Elements (CRE) small molecule antagonists, cell-based qHTS assay (AID 1963591; active = well fitted inhibition curve with a large enough effect in the signal ratio in the repeat runs, not every such curve was filed as active; inconclusive = weak or mixed curves, or effect the other way; the % refers to the signal ratio; also: potency is read from the fitted curve at half-maximal effect); settings: CRE-bla HEK293T, beta-lactamase FRET ratio; activity change, negative = inhibition: at 92.4 µM (top of the series) unless noted
How it was run: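 First, CRE-bla HEK293T cells settled 18 h at 37 C. Next, compound and 0.25 uM final NKH477 were applied for 3 h. Last, LiveBLAzer B/G substrate was loaded for 2 h at room temperature.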

[7] = molecular target: D(2) dopamine receptor (Homo sapiens) (UniProt P14416); assay: Dopamine D2 receptor (DRD2) small molecule agonists, cell-based qHTS assay (AID 1963594); settings: HEK293-DRD2 cAMP HTRF, agonist mode, 30 min; activation: at 92.4 µM (top of the series) unless noted; also: nearly all actives have a fitted effect of over 35% in size
How it was run: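 HEK293 cells stably expressing human DRD2, pre-treated with PDE inhibitor Ro20-1724 (0.1 mM final) and compound 10 min at room temperature, then stimulated with NKH477 (200nM […]) for 30 min. cAMP read by HTRF (665/620 nm).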

[8] = activation: at 92.4 µM (top of the series) unless noted
% is scaled to controls: 0 for no effect and ±100 for the full control effect.

ON(Cc1ccccc1)Cc1ccccc1
Potency [1]: inactive | Potency [2]: inactive | Potency [3, 8]: inactive

O=[N+]([O-])c1cccc(S(=O)(=O)NCCNS(=O)(=O)c2cccc([N+](=O)[O-])c2)c1
Potency [1]: inconclusive: 0.818 µM [inhibitor, single point] | Potency [2]: inconclusive: 33.5 µM [rising, single point] | activity change, negative = inhibition [4]: inconclusive: -32% [at 42.5 µM]

CCCCCCCCCCCCCCCC(=O)OC(C)C
Potency [1]: inactive | activity change, negative = inhibition [5]: inconclusive: -8.8% [at 42.5 µM] | activation [3, 8]: inconclusive: -14% [at 42.5 µM] and inconclusive: 1.38% [at 42.5 µM]

c1ccc2cc3ccccc3cc2c1
Potency [1]: inactive and inconclusive: 23.7 nM [inhibitor, full curve, poor fit] | Potency [6]: inactive

C=C(C)C1CC=C(C)C(O)C1 (stereo unspecified)
Potency [1]: inconclusive: 1.5 µM [inhibitor, partial curve, poor fit] | Potency [6]: inactive | activation [3, 8]: inconclusive: -8.73%

Cn1cnc2c1c(=O)[nH]c(=O)n2C
Potency [1]: inconclusive: 2.31 µM [inhibitor, full curve, poor fit] | Potency [6]: inactive | activation [3, 8]: inconclusive: 9.28% [at 42.5 µM]

O=C(NS(=O)(=O)/C=C/c1cccs1)c1ccc(F)cc1Br
Potency [1]: inconclusive: 47.2 µM [inhibitor, single point] | activity change, negative = inhibition [6]: inconclusive: 0% | activation [3, 8]: inconclusive: -43.1%

CN(C)CCOc1ccccc1Cc1ccccc1
Potency [1]: active: 0.326 µM | Potency [6]: inactive | Potency [5]: active: 33.5 µM | Potency [3, 8]: inconclusive: 4.22 µM [inhibitor, full curve]

CC(C)=CCC/C(C)=C/C=O
Potency [1]: inconclusive: 42.1 µM [inhibitor, single point] | activity change, negative = inhibition [6]: inconclusive: 16.4% | activation [3, 8]: inconclusive: -8.7% | activation ([3]; at 92.4 µM (top of the series)): inactive: -4.91%

CO[Si](CCC1CCC2OC2C1)(OC)OC (stereo unspecified)
Potency [1]: inactive | activation [3, 8]: inconclusive: -2.39%

O=C(OCc1ccccc1)c1ccccc1
Potency [1]: inactive | Potency [6]: inconclusive: 26.6 µM [rising, partial curve, poor fit] | Potency [3, 8]: inconclusive: 6.13 µM [inhibitor, full curve] | activation [3, 8]: inconclusive: 15%

Cc1ccc(=O)n(-c2ccccc2)c1
Potency [1]: inconclusive: 0.365 µM [inhibitor, full curve, poor fit] | Potency [6]: inactive | activation [3, 8]: inconclusive: -0.752% [at 42.5 µM]

O=C(c1ccccc1)C(O)c1ccccc1 (stereo unspecified)
Potency [1]: active: 0.729 µM | Potency [5]: inactive

C=CCOC(=O)COCCC(C)C
Potency [1]: inconclusive: 0.052 µM [inhibitor, full curve, poor fit] | activation [3, 8]: inconclusive: -24.9%

CCCCCCCC/C=C\CCCCCCCCN
Potency [1]: inconclusive: 20.5 µM [inhibitor, partial curve, poor fit] | Potency [6]: inactive | activation [3, 8]: inconclusive: 4.49% [at 42.5 µM]

C=CCOCC(CC)(CO)COCC=C
Potency [1]: inactive | Potency [6]: inactive | activation [3, 8]: inconclusive: 5.67%

COC(=O)C1=C(C)NC(C)=C(C(=O)OC(C)C)C1c1cccc2nonc12 (stereo unspecified)
Potency [1]: inconclusive: 0.0183 µM [inhibitor, full curve, poor fit] | activity change, negative = inhibition [5]: inconclusive: -32.6% [at 42.5 µM] | Potency [3, 8]: inconclusive: 3.76 µM [inhibitor, full curve, poor fit]

NC=O
Potency [1]: inactive | Potency [5]: inactive | Potency [3, 8]: inconclusive: 0.676 µM [inhibitor, partial curve, poor fit] | activation [3, 8]: inconclusive: -45.3%

C=CC1CO1 (stereo unspecified)
Potency [1]: inactive | activation [3, 8]: inconclusive: -16.4%

COc1ccc2nc(N)sc2c1
Potency [1]: inconclusive: 0.749 µM [inhibitor, full curve, poor fit] | Potency [6]: inconclusive: 27.3 µM [fluorescent] | activation [3, 8]: inconclusive: 20.3% | activation ([3]; at 92.4 µM (top of the series)): inactive: 13.4%

C=C(C)c1cccc(C(C)(C)N=C=O)c1
Potency [1]: inactive | activity change, negative = inhibition [5]: inconclusive: -27.9% | Potency [3, 8]: inconclusive: 27.3 µM [inhibitor, partial curve, poor fit] | activation [7]: inconclusive: 30.5%

FC(F)(F)c1ccc(Cl)cc1Cl
Potency [1]: inconclusive: 1.86 µM [inhibitor, full curve, poor fit] | Potency [5]: inconclusive: 0.54 µM [inhibitor, single point]

CCN(CCO)c1cccc(C)c1
Potency [1]: inactive | Potency [6]: inactive | activation [3, 8]: inconclusive: -15.6%

NC(=O)N[C@@H](CCC(=O)O)C(=O)O
Potency [1]: active: 8.18 µM | Potency [6]: inactive | Potency [3, 8]: inconclusive: 11.9 µM [inhibitor, single point] | Potency [4]: inconclusive: 29.8 µM [inhibitor, single point]

NCCc1ccn[nH]1
Potency [1]: inconclusive: 1.03 µM [inhibitor, full curve] | Potency [6]: inactive | Potency [3, 8]: inactive
